Series [1] can be described thus: general procedure: Fmoc solid-phase peptide synthesis; Rink Amide AM LL. The conditions noted are these: whole synthesis, trifluoro acetate salt.
Series [2] can be described thus: general procedure: Fmoc solid-phase peptide synthesis; Rink amide AM resin (Rink Amide AM LL, NovaBiochem). To be noted: whole synthesis; for isolated mass: TFA salt; for final HPLC purity: UV; for final HPLC purity / isolated yield: scale of the general procedure approximately 0.11 mmol, trifluoro acetate salt.

Non-standard residues stand in square brackets, D forms with d. Nle = CCCC[C@H](N)C(=O)O; Aib = CC(C)(N)C(=O)O

This note sets out measurements from US10988524B2 (priority 2018, dated 2021).

With “Ac-LEGREKVRAQI[Aib][Aib]EGQSTWS[Aib]RKK-NH2”, the crude mass in series [1] turned out to be 200 mg. Also, in series [2], the isolated mass result is “m=50 mg”, the “final HPLC purity” value worked out at 93% and the isolated yield was determined as 14%.
The matching figures for “Ac-LEGREKVRAQI[Aib][Aib]EG[Nle]SQWS[Aib]RRR-NH2”: 140 mg, “m=44 mg”, 96% and 12%.
For the substance “Ac-LEGREKVRAQI[Aib][Aib]EG[Nle]STWS[Aib]RKK-NH2”, the crude mass in series [1] (scale 0.11 mmol) is listed as 250 mg. Also, in series [2], the isolated mass entry is on record as “m=73 mg”, the “final HPLC purity” value came out at 98% and the isolated yield worked out at 21%.
With “Ac-LEGREKVRAQI[Aib][Aib]EG[Nle]STYS[Aib]RKK-NH2”, the crude mass in series [1] came to 169 mg. In addition, in series [2], the isolated mass result is listed as “m=54 mg”, the “final HPLC purity” value came out at 97% and the isolated yield amounted to 15%.
The matching figures for “Ac-Leu-Glu-Gly-Arg-Glu-Lys-Val-Arg-Ala-K(Ac)-Ile-Aib-Aib-Glu-Gly-Nle-Ser-Thr-Trp-Ser-Aib-Arg-Lys-K(Ac)-NH2”: 250 mg, “m=70 mg”, 97% and 20%.
